Measured values taken from publication PMC3138739.

Sequences of proteins named here, by UniProt entry; tags and fusion partners are left off.
UniProt A0QS45: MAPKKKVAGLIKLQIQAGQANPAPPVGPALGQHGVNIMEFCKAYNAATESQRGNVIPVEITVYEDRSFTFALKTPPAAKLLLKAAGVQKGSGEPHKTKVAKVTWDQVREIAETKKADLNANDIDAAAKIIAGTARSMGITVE
UniProt P60281: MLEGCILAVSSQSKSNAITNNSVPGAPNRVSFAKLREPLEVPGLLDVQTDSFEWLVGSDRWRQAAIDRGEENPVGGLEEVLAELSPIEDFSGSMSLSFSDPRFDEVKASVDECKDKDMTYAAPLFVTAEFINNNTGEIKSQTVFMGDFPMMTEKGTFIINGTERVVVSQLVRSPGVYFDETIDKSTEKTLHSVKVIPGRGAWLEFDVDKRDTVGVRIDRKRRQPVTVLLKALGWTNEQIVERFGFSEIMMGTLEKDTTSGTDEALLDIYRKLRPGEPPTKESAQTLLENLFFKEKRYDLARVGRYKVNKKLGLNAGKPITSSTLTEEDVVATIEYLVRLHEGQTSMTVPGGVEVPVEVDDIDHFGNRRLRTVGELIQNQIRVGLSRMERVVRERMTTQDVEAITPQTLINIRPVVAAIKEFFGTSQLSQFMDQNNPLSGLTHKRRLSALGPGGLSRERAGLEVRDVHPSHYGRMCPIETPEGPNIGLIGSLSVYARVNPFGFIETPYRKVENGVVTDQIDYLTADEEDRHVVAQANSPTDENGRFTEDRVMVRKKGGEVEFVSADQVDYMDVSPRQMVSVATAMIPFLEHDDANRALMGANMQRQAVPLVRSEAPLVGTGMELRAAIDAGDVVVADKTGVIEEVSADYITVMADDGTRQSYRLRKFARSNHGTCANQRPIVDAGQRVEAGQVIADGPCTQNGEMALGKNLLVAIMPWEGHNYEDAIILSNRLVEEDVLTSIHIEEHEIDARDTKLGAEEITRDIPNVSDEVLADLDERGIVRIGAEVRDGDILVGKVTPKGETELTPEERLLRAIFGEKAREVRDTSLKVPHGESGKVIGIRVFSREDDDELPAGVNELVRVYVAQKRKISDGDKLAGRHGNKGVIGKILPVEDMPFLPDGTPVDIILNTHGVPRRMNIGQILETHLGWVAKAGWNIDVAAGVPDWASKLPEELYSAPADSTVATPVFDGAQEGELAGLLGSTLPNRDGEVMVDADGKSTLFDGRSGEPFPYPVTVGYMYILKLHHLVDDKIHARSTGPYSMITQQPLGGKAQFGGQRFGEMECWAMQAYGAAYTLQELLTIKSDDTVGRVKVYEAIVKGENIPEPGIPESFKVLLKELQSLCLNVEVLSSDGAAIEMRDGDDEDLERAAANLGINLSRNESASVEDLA

Legend:
[1] = target: HA-Arr (HA-tagged wild-type mono-ADP-ribosyltransferase Arr) (M. smegmatis) (UniProt A0QRS5); experiment: co-IP; whole cell lysates of M. smegmatis strains expressing HA-Arr or HA-Arr point mutants (ΔrplK::FLAG-L11 strains by the legend), NP-40 buffer (10 mM sodium phosphate pH 8.0, 150 mM NaCl, 0.25% NP-40), monoclonal anti-HA agarose overnight at 4°C, eluted with HA peptide; blots with anti-RNAP β, anti-FLAG, anti-HA
[2] = target: LexA DNA binding domain-Arr (yeast two-hybrid bait) (M. smegmatis) (UniProt A0QRS5); experiment: two-hybrid; LexA system in S. cerevisiae: bait LexA BD-Arr (pEG202), prey AD-L11 (pJSC401), mating of EGY48 and W303a, lacZ reporter pSH18-34, blue colour on X-gal

| binding [1] | binding [2] | Substance |
| --- | --- | --- |
| binds |  | FLAG-L11 (N-terminally FLAG-tagged ribosomal protein L11) (from UniProt A0QS45 1-142) |
| binds |  | RNAP β subunit (from UniProt P60281 1-1169) |
|  | binds | activation domain-L11 (yeast two-hybrid prey) (from UniProt A0QS45 1-142) |

These are yes or no findings as the source states them, for the method shown. Binding can be weak; no strength is given. For part of these data: In cells and extracts the contact can be indirect.
